This passage reports IC50 results from US20250325552A1, “SUBSTITUTED THIADIAZOLYL DERIVATIVES AS DNA POLYMERASE THETA INHIBITORS” (IDEAYA Biosciences, Inc., priority 2020, published 2025).

The chains behind the UniProt entries cited, without tags or fusion partners. Residues count along the entry.
UniProt O75417, 1-899 limits assumed: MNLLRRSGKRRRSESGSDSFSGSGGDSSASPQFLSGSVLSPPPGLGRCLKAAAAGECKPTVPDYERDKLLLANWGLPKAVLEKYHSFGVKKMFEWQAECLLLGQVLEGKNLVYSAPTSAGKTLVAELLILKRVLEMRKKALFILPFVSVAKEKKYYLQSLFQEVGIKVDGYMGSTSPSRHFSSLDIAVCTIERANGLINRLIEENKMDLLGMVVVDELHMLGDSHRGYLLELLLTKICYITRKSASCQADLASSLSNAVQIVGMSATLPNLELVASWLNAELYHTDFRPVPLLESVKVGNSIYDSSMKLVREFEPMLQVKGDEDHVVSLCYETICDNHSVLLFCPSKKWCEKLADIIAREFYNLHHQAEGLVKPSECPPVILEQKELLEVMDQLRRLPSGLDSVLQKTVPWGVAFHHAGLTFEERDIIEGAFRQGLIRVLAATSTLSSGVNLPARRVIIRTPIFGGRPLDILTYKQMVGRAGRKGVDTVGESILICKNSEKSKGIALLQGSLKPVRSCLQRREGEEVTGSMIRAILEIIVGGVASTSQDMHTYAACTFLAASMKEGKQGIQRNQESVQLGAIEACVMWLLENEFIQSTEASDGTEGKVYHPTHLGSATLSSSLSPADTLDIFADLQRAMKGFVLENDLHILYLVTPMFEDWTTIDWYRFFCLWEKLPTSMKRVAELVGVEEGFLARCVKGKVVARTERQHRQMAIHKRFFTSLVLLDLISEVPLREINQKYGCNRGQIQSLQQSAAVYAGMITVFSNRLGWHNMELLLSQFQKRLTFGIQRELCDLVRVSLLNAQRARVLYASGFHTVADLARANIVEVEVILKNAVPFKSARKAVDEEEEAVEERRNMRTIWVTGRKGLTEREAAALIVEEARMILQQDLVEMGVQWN

The assay deals with Polθ theta (1-899) (hPolQ) (Homo sapiens (Human), UniProt O75417). Briefly: Biological Assay 1: Polθ ATPase activity, NADH oxidation-coupled enzymatic assay (10 nM enzyme, 30 min). The following applies: read-out: ATPase NADH coupling:Standard Screening:hPolQ IC50; Polθ (1-899) 10 nM, 100 μM ATP, 300 nM dT50 ssDNA; Examples 1 to 268. Here is the method: The ability of the compounds of Formula (I), (II), (III), (IV), or Table 1 (Examples 1 to Example 268) to inhibit ATPase activity of Polθ theta (1-899) was determined using the assay described below.
Polθ Theta ATPase activity was determined by measuring the rate of ATP turn over in a NADH oxidation-coupled enzymatic assay. 10-point dilution series of compounds were used in a 384 well format for the inhibition assays. Polθ theta (1-899) (10 nM) in assay buffer (20 mM Tris HCl (pH 7.80), 80 mM KCl, 10 mM MgCl2, 1 mM DTT, 0.01% BSA, 0.01% Tween, 5% glycerol) was transferred to the test wells (20 μL), except the low control wells (20 μL of assay buffer was added to the low control wells). The plate was then incubated at room temperature for 15 min. An equal volume (20 μL) of 100 μM ATP, 300 nM dT50 (single-stranded DNA (ssDNA) containing 50 thymine bases), 300 μM NADH, 6 mM PEP, 10 U/mL lactate dehydrogenase and U/mL pyruvate kinase in assay buffer was added to all the test wells. The plate was then centrifuged at 1000 rpm for 1 min. The reaction was monitored for 30 min by measuring absorbance (λ=340 nm) in a Tecan Spark multimode plate reader every minute. The high control (DMSO with enzyme) with low absorbance intensity represents no inhibition of ATPase reaction while the low control (DMSO with buffer) with high absorbance intensity represents full inhibition of ATPase activity. […]

For orientation: IC50 means the point on the concentration scale where inhibition reaches its midpoint.

The match of structure and compound is tentative. Some results are limits rather than exact numbers.

In the case of `COc1cnc(Cl)cc1-c1cc(C)ncc1C(=O)Nc1nnc(OCC2CCO2)s1` (single isomer, unassigned), the IC50 was less than 200 nM.
